Here are results for two molecules from publication PMC4882005.

Protein sequences, listed by entry. Tags and fused reporters are not part of them.
UniProt Q9H172: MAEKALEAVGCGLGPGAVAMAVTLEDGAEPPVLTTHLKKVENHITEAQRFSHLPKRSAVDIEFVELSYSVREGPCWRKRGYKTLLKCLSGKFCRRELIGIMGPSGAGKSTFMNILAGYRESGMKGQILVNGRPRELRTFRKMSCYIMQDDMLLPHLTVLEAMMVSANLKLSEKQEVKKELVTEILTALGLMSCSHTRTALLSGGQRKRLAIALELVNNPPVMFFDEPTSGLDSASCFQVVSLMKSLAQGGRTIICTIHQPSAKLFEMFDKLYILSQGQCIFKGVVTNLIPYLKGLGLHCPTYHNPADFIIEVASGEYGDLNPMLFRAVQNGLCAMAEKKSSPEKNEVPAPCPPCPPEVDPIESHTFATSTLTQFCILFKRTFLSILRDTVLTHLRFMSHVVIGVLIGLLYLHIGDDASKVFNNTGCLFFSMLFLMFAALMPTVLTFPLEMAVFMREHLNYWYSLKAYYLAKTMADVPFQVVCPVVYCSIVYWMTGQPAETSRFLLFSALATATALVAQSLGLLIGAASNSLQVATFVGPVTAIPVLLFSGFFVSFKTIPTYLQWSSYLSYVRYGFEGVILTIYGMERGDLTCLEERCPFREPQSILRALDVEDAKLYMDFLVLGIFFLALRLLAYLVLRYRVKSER

Assay [1] has as its target T1, GFP-ABCG2, Q9UNQ0.
T1 chain: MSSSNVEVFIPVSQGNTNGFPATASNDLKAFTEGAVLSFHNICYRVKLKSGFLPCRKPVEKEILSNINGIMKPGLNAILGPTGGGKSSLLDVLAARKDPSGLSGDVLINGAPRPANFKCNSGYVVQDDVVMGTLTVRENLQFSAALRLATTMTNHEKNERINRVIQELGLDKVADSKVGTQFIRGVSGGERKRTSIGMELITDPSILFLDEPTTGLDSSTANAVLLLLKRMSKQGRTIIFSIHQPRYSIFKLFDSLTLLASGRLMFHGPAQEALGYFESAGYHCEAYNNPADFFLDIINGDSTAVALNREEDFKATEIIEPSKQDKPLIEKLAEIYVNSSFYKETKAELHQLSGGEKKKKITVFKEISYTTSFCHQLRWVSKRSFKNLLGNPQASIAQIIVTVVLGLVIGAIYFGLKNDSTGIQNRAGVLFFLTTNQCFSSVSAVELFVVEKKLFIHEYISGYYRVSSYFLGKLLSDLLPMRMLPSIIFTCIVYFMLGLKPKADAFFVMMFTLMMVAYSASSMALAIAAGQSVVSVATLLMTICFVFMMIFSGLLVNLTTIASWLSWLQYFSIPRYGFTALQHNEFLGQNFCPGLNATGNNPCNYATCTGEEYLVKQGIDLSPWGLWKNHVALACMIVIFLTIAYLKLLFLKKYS
In words: co-IP; HEK293 co-transfected with the GFP-tagged and the untagged protein (untagged in excess), lysed 24 h after transfection in 50 mM Tris pH 7.4, 150 mM NaCl, 0.5% NP-40; precipitated with anti-GFP on protein G-sepharose, 2 h at 4°C; Western blot of the precipitate. Conditions: remark: other sources report otherwise. Background: In western blotting, separated proteins are transferred to a membrane and probed.

Assay [2] addresses ABCG4 (wild type, untagged) (UniProt Q9H172). In words: co-IP; HEK293 co-transfected with ABCG4 and an ABCG1 or ABCG2 variant, lysed in 50 mM Tris pH 7.4, 150 mM NaCl, 0.5% NP-40; precipitated with anti-ABCG4 monoclonal antibody on protein G-sepharose, 2 h at 4°C; Western blot of the precipitate.

No constants are given. Whether binding was seen depends on the method and setting. In cells and extracts the contact can be indirect. Some binding calls cover weakened binding; strength is not graded here. For some assays here: Sequences can lack the tags named with a protein.

B1: ABCG2 (wild type, untagged), Q9UNQ0-1 1-655 (protein)
chain: MSSSNVEVFIPVSQGNTNGFPATASNDLKAFTEGAVLSFHNICYRVKLKSGFLPCRKPVEKEILSNINGIMKPGLNAILGPTGGGKSSLLDVLAARKDPSGLSGDVLINGAPRPANFKCNSGYVVQDDVVMGTLTVRENLQFSAALRLATTMTNHEKNERINRVIQELGLDKVADSKVGTQFIRGVSGGERKRTSIGMELITDPSILFLDEPTTGLDSSTANAVLLLLKRMSKQGRTIIFSIHQPRYSIFKLFDSLTLLASGRLMFHGPAQEALGYFESAGYHCEAYNNPADFFLDIINGDSTAVALNREEDFKATEIIEPSKQDKPLIEKLAEIYVNSSFYKETKAELHQLSGGEKKKKITVFKEISYTTSFCHQLRWVSKRSFKNLLGNPQASIAQIIVTVVLGLVIGAIYFGLKNDSTGIQNRAGVLFFLTTNQCFSSVSAVELFVVEKKLFIHEYISGYYRVSSYFLGKLLSDLLPMRMLPSIIFTCIVYFMLGLKPKADAFFVMMFTLMMVAYSASSMALAIAAGQSVVSVATLLMTICFVFMMIFSGLLVNLTTIASWLSWLQYFSIPRYGFTALQHNEFLGQNFCPGLNATGNNPCNYATCTGEEYLVKQGIDLSPWGLWKNHVALACMIVIFLTIAYLKLLFLKKYS
Turning to B1, the binding result in assay [1] is “binds”.

B2: ABCG2 K86M, inactive form (protein, UniProt Q9UNQ0-1 1-655)
chain: MSSSNVEVFIPVSQGNTNGFPATASNDLKAFTEGAVLSFHNICYRVKLKSGFLPCRKPVEKEILSNINGIMKPGLNAILGPTGGGMSSLLDVLAARKDPSGLSGDVLINGAPRPANFKCNSGYVVQDDVVMGTLTVRENLQFSAALRLATTMTNHEKNERINRVIQELGLDKVADSKVGTQFIRGVSGGERKRTSIGMELITDPSILFLDEPTTGLDSSTANAVLLLLKRMSKQGRTIIFSIHQPRYSIFKLFDSLTLLASGRLMFHGPAQEALGYFESAGYHCEAYNNPADFFLDIINGDSTAVALNREEDFKATEIIEPSKQDKPLIEKLAEIYVNSSFYKETKAELHQLSGGEKKKKITVFKEISYTTSFCHQLRWVSKRSFKNLLGNPQASIAQIIVTVVLGLVIGAIYFGLKNDSTGIQNRAGVLFFLTTNQCFSSVSAVELFVVEKKLFIHEYISGYYRVSSYFLGKLLSDLLPMRMLPSIIFTCIVYFMLGLKPKADAFFVMMFTLMMVAYSASSMALAIAAGQSVVSVATLLMTICFVFMMIFSGLLVNLTTIASWLSWLQYFSIPRYGFTALQHNEFLGQNFCPGLNATGNNPCNYATCTGEEYLVKQGIDLSPWGLWKNHVALACMIVIFLTIAYLKLLFLKKYS
As for B2, in assay [2], the binding result is “no binding”.
